## Library screen at single concentrations

Sequences of proteins named here, by UniProt entry; tags and fusion partners are left off. Residues count along the entry.
UniProt P9WNZ1, whole entry: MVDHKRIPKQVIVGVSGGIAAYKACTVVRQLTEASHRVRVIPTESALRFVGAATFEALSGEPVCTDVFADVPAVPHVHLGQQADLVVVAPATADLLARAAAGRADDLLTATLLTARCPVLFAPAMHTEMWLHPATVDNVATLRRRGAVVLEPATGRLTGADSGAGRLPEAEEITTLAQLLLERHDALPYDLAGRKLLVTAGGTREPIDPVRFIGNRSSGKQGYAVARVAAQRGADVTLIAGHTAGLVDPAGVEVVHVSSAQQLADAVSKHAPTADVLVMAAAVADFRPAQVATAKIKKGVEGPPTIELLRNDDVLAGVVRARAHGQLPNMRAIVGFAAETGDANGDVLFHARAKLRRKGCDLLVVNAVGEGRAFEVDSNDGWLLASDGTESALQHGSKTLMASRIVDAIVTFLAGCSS
UniProt A4I591, 1-473: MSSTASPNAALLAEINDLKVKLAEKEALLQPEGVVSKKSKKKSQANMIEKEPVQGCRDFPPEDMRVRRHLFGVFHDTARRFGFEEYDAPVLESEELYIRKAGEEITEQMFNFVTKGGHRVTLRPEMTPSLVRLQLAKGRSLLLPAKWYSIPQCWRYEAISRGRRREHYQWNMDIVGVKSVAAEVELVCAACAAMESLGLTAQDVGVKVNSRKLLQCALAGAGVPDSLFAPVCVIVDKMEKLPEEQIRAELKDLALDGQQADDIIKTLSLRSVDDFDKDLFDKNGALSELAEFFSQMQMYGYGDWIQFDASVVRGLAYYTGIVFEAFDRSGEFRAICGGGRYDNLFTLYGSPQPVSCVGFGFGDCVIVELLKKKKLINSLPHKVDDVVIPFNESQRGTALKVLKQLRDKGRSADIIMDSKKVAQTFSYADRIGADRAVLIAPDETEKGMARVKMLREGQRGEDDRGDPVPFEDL

CoaBC: 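Coenzyme A biosynthesis protein CoaBC, Mycobacterium tuberculosis (UniProt P9WNZ1). Enzyme assay of CoaBC with a phosphate dye (Biomol Green) read at 650 nm. Compounds at 30 µM. Direction is inferred from only a few compounds that gave an IC50; most scored high, so higher reads as stronger inhibition. Most strong results did not repeat in a second test. Size under these conditions: about 67,000 compounds, about 40 of them at 50% or above in at least one test.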
LiHisRS: 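Enzyme assay of histidyl-tRNA synthetase; the read-out is not stated. Target: Histidine-tRNA ligase, Leishmania infantum (UniProt A4I591). Compounds at 30 µM. Direction is inferred from retests: higher values go with stronger inhibition. The assay is labelled LdHisRS but filed under L. infantum. About 69,000 compounds were tested under these conditions; 0.6% (about 410) showed 50% or more at least once.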
Leishmania in macrophages: 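Cell assay of Leishmania donovani living inside macrophages; the read-out is not stated. Concentration: 30 µM. Direction is inferred from retests: higher values go with stronger inhibition. Of about 69,000 compounds tested this way, about 1,000 (1.5%) reached 50% or more in at least one test.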

The filed quantity is “Percent Effect” (%). The controls that fix the scale are not given in the record; negative values are as filed. This is an unselected part of the compounds tested. Two or more numbers in one place are separate tests of the same structure; such repeats can differ widely.

[H][C@@]12CN(C(=O)c3ccc(OC)cc3)CCN1C(=O)CNC2=O read Leishmania in macrophages: -17.52%.
O=C(NCCN1CCCCC1CO)c1cc(-c2ccccc2)on1 (stereo unspecified) read CoaBC: 3.03%; LiHisRS: 19.35%; Leishmania in macrophages: 12.26%.
Cc1ccc(NC(=O)[C@@H]2C[C@H](C(=O)O)CN(Cc3sccc3C)C2)cn1 read CoaBC: 3.21%; LiHisRS: 6.993%; Leishmania in macrophages: -1.975%.
Cc1cc(C)c(Cn2cncn2)cc1CN1CC[C@H]2CC[C@@H](C1)N2 read CoaBC: -10.63%; LiHisRS: 28.12%.
[H][C@]12CNC[C@@]1(C(=O)NCCSC(C)(C)C)CN(S(C)(=O)=O)C2 read Leishmania in macrophages: 39.84%.
O=C(O)C(F)(F)F.O=C(O)C(F)(F)F.O=C1COC2(CCN(Cc3ccncc3)CC2)CN1 read Leishmania in macrophages: -0.8887%.
CN1CC(c2cc(O)nc(NCc3ccccc3Cl)n2)CC1=O (stereo unspecified) read CoaBC: -0.9804%; LiHisRS: 13.54%; Leishmania in macrophages: 7.659%.
CCN(C(c1cccnc1)c1ccc2c(c1)CCC2)S(C)(=O)=O (stereo unspecified) read CoaBC: 6.807%; LiHisRS: 6.349%; Leishmania in macrophages: -25.19%.
CN(C)CCN(CC1CCCO1)C(=O)Cc1cn2ccccc2n1 (stereo unspecified) read CoaBC: -16.02%; LiHisRS: 21.69%; Leishmania in macrophages: -22.76%.
CC(C)N1CCCC(C(=O)NCCc2csc(-c3ccncc3)n2)C1 (stereo unspecified) read CoaBC: -3.807%; LiHisRS: 20%; Leishmania in macrophages: -6.418%.
[H][C@]12CC[C@]([H])(CN(C(=O)C3CCC3)C1)N(C(=O)c1ccc(OCC)cc1)C2 read Leishmania in macrophages: 26.62%.
c1cncc(CN2CCC(NCCc3ccc4c(c3)OCO4)CC2)c1 read CoaBC: -4.466%; LiHisRS: 11.67%; Leishmania in macrophages: 21.95%.
CCOC(=O)N1CCC(NC(C)Cc2cc(C)n[nH]2)CC1 (stereo unspecified) read CoaBC: 10.61%; LiHisRS: 8.197%; Leishmania in macrophages: 11.64%.
O=C(O)C(F)(F)F.[H][C@]12CCN(C(=O)c3cccs3)CC[C@]1([H])N(CCOC)CCO2 read Leishmania in macrophages: -0.5487%.
O=C(NC1CCCCC1)N1C[C@@H]2OCCN(C(=O)c3ccco3)[C@@H]2C1 read CoaBC: -2.397%; LiHisRS: 0%.
O=C(c1cccc(F)c1)N1CC[C@@H]2CN(c3ncccn3)CCO[C@@H]2C1 read CoaBC: 4%; LiHisRS: 6%.
CCS(=O)(=O)N1C[C@H](c2nc(C)no2)C[C@H]2OCC[C@H]21 read CoaBC: 6.624%; LiHisRS: 22.34%.
O=C(CSc1ccccn1)N1CCN(CCO)[C@@H]2CS(=O)(=O)C[C@@H]21 read CoaBC: -1.72%; LiHisRS: 11.9%.
Cc1nc(O)cc(CN2CC=C(c3cnn(-c4ccccc4)c3)CC2)n1 read CoaBC: 8.068%; LiHisRS: -30.14%; Leishmania in macrophages: -18.38%.
O=C1NCCCCC1Sc1ccccc1F (stereo unspecified) read CoaBC: -0.1215%; LiHisRS: 8.696%; Leishmania in macrophages: -36.16%.
CCn1ccc(-c2cc(C(=O)O)n3nc(C(F)(F)F)c(Br)c3n2)n1 read CoaBC: -23.94%; LiHisRS: 3.448%; Leishmania in macrophages: -25.71%.
CCOCCN1Cc2ncn(C)c2C(COCC2CCOCC2)C1.O=C(O)C(F)(F)F.O=C(O)C(F)(F)F (stereo unspecified) read Leishmania in macrophages: 4.367%.
Cc1nc(CNC(=O)NC2CCN(c3cccc(Cl)c3)C2)no1 (stereo unspecified) read CoaBC: -0.4914%; LiHisRS: 17.2%; Leishmania in macrophages: 40.16%.
O=c1nc(SCc2cccnc2)c2c(n1CCO)CCC2 read CoaBC: 1.493%; LiHisRS: 19.23%; Leishmania in macrophages: 13.28%.
CN(C)C(=O)CN1CCC2(CCCN(Cc3cccn3C)C2)C1=O (stereo unspecified) read CoaBC: 6.349% and 23.06%; LiHisRS: 15.33%.
CCc1nnc(CN2CCC3(CC2)Nc2ccccc2NC3=O)o1 read CoaBC: 0%; LiHisRS: 13.13%; Leishmania in macrophages: 35.45%.
O=c1[nH]cc(N2CCCCC2)c(=O)[nH]1 read CoaBC: 4.612%; LiHisRS: 10%; Leishmania in macrophages: 14.42%.
O=C(CCc1nc2cc(Br)cnc2[nH]1)NCCCn1ccnc1 read CoaBC: 3.544%; LiHisRS: 7.895%; Leishmania in macrophages: 9.368% and -7.5%.

3 of the entries, repeated:

| structure | CoaBC | LiHisRS | Leishmania in macrophages |
|---|---|---|---|
| `CC(C)N1CCCC(C(=O)NCCc2csc(-c3ccncc3)n2)C1` (stereo unspecified) | -3.807% | 20% | -6.418% |
| `CN1CC(c2cc(O)nc(NCc3ccccc3Cl)n2)CC1=O` (stereo unspecified) | -0.9804% | 13.54% | 7.659% |
| `c1cncc(CN2CCC(NCCc3ccc4c(c3)OCO4)CC2)c1` | -4.466% | 11.67% | 21.95% |

Data taken from ChEMBL document CHEMBL3988442, “University of Dundee, Small-Polar-MMV Screening Library” (2021).